Laboratory results published in patent publication US20250249110A1 (SICHUAN UNIVERSITY, priority 2016, published 2025).

Test: peptide made by a vendor (peptide synthesis; Fmoc-Rink Amide MBHA Resin (0.36 mmol/g); HBTU/HOBt/DIEA)
Conditions: whole synthesis, scale of the general procedure 1.0 g resin (0.36 mmol/g)

Chol-suc-VQWRIRVAVIRK-NH2
final HPLC purity: more than 95%
